Reference: PubChem BioAssay AID1224830 (NIAID, 2016)

Aim: 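Host factors that control LPS-induced TNF expression in human macrophages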 (primary screen)
System: human THP-1 monocytic leukaemia cells, TNF dual-luciferase reporter clone, PMA-differentiated to macrophage-like cells
Reagent: siRNA pool against human genes, 50 nM
Timing: LPS for 4 h, given about 3 days after siRNA transfection
Treatment: bacterial LPS (TLR4 ligand), 10 ng/ml
Measured: 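Ratio of firefly to renilla light, scaled to the plate median and expressed as a robust z-score per replicate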
Scale: TNF reporter robust z-score: higher = stronger TNF reporter response to LPS
Active means: 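a well is active when its z-score exceeds 2.8 or falls below -1.5; control wells carry no call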
The deposit covers about 18,000 reagents; this is a random part of them. Of all reagents, about 2,900 (16%) were called active. 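Calls are made per well; low scores hint the gene aids the LPS response, high scores that it dampens it.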 Unmarked entries are inactive. Repeated entries: four replicate wells of each siRNA pool.

{"Target gene": "RNF182 (ring finger protein 182)", "TNF reporter robust z-score": -1.43}
{"Target gene": "RNF182 (ring finger protein 182)", "TNF reporter robust z-score": -0.94}
{"Target gene": "RNF182 (ring finger protein 182)", "TNF reporter robust z-score": 0.7}
{"Target gene": "RNF182 (ring finger protein 182)", "TNF reporter robust z-score": 0.01}
{"Target gene": "OR2W3 (olfactory receptor family 2 subfamily W member 3)", "TNF reporter robust z-score": -0.75}
{"Target gene": "OR2W3 (olfactory receptor family 2 subfamily W member 3)", "TNF reporter robust z-score": -0.18}
{"Target gene": "OR2W3 (olfactory receptor family 2 subfamily W member 3)", "TNF reporter robust z-score": -1.05}
{"Target gene": "OR2W3 (olfactory receptor family 2 subfamily W member 3)", "TNF reporter robust z-score": -0.28}
{"Target gene": "SPRY2 (sprouty RTK signaling antagonist 2)", "TNF reporter robust z-score": 0.07}
{"Target gene": "SPRY2 (sprouty RTK signaling antagonist 2)", "TNF reporter robust z-score": -0.98}
{"Target gene": "SPRY2 (sprouty RTK signaling antagonist 2)", "TNF reporter robust z-score": -0.86}
{"Target gene": "SPRY2 (sprouty RTK signaling antagonist 2)", "TNF reporter robust z-score": 0.4}
{"Target gene": "RAD51AP1 (RAD51 associated protein 1)", "TNF reporter robust z-score": -1.38}
{"Target gene": "RAD51AP1 (RAD51 associated protein 1)", "TNF reporter robust z-score": -0.32}
{"Target gene": "RAD51AP1 (RAD51 associated protein 1)", "TNF reporter robust z-score": -0.59}
{"Target gene": "RAD51AP1 (RAD51 associated protein 1)", "TNF reporter robust z-score": 0.07}
{"Target gene": "BCL11A (BCL11 transcription factor A)", "TNF reporter robust z-score": -1.1}
{"Target gene": "BCL11A (BCL11 transcription factor A)", "TNF reporter robust z-score": -0.86}
{"Target gene": "BCL11A (BCL11 transcription factor A)", "TNF reporter robust z-score": -1.18}
{"Target gene": "BCL11A (BCL11 transcription factor A)", "TNF reporter robust z-score": -0.96}
{"Target gene": "XPA (XPA, DNA damage recognition and repair factor)", "TNF reporter robust z-score": 0.28}
{"Target gene": "XPA (XPA, DNA damage recognition and repair factor)", "TNF reporter robust z-score": -1.07}
{"Target gene": "XPA (XPA, DNA damage recognition and repair factor)", "TNF reporter robust z-score": -1.18}
{"Target gene": "XPA (XPA, DNA damage recognition and repair factor)", "TNF reporter robust z-score": -0.58}
{"Target gene": "CKAP4 (cytoskeleton associated protein 4)", "TNF reporter robust z-score": 0.66}
{"Target gene": "CKAP4 (cytoskeleton associated protein 4)", "TNF reporter robust z-score": 0.64}
{"Target gene": "CKAP4 (cytoskeleton associated protein 4)", "TNF reporter robust z-score": -1.13}
{"Target gene": "CKAP4 (cytoskeleton associated protein 4)", "TNF reporter robust z-score": -0.5}
{"Target gene": "RNASEH2C (ribonuclease H2 subunit C)", "TNF reporter robust z-score": -0.51}
{"Target gene": "RNASEH2C (ribonuclease H2 subunit C)", "TNF reporter robust z-score": 0.51}
{"Target gene": "RNASEH2C (ribonuclease H2 subunit C)", "TNF reporter robust z-score": -0.98}
{"Target gene": "RNASEH2C (ribonuclease H2 subunit C)", "TNF reporter robust z-score": 1.21}
{"Target gene": "PARD3 (par-3 family cell polarity regulator)", "TNF reporter robust z-score": -1.47}
{"Target gene": "PARD3 (par-3 family cell polarity regulator)", "TNF reporter robust z-score": -1.49}
{"Target gene": "PARD3 (par-3 family cell polarity regulator)", "TNF reporter robust z-score": -1.05}
{"Target gene": "PARD3 (par-3 family cell polarity regulator)", "TNF reporter robust z-score": -0.78}
{"Target gene": "GNL1 (G protein nucleolar 1)", "TNF reporter robust z-score": 0.12}
{"Target gene": "GNL1 (G protein nucleolar 1)", "TNF reporter robust z-score": 0.15}
{"Target gene": "GNL1 (G protein nucleolar 1)", "TNF reporter robust z-score": 0.5}
{"Target gene": "GNL1 (G protein nucleolar 1)", "TNF reporter robust z-score": 0.42}
{"Target gene": "TLE3 (TLE family member 3, transcriptional corepressor)", "TNF reporter robust z-score": -1.32}
{"Target gene": "TLE3 (TLE family member 3, transcriptional corepressor)", "TNF reporter robust z-score": -0.45}
{"Target gene": "TLE3 (TLE family member 3, transcriptional corepressor)", "TNF reporter robust z-score": "10.6 (active)"}
{"Target gene": "TLE3 (TLE family member 3, transcriptional corepressor)", "TNF reporter robust z-score": 0.06}
{"Target gene": "BRF1 (BRF1 general transcription factor IIIB subunit)", "TNF reporter robust z-score": -1.28}
{"Target gene": "BRF1 (BRF1 general transcription factor IIIB subunit)", "TNF reporter robust z-score": -0.88}
{"Target gene": "BRF1 (BRF1 general transcription factor IIIB subunit)", "TNF reporter robust z-score": -0.09}
{"Target gene": "BRF1 (BRF1 general transcription factor IIIB subunit)", "TNF reporter robust z-score": 1.48}

3 entries from above, sorted by “TNF reporter robust z-score”, low to high.
{"Target gene": "BCL11A (BCL11 transcription factor A)", "TNF reporter robust z-score": -1.1}
{"Target gene": "BCL11A (BCL11 transcription factor A)", "TNF reporter robust z-score": -0.86}
{"Target gene": "RAD51AP1 (RAD51 associated protein 1)", "TNF reporter robust z-score": 0.07}
